58 molecules from PubChem BioAssay AID2685 (National Center for Advancing Translational Sciences (NCATS), 2010) can be followed below.

The assay in a line: qHTS Assay for Lipid Storage Modulators in Drosophila S3 Cells.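 As to cell number change: cells counted by Cell Tracker Red CMTPX staining in the red channel.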 The note with it: BODIPY lipid droplet fluorescence, 18-24 h; for cell number change: measured here: cell count max response, cells fed with added oleic acid. Summed up: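 Drosophila S3 cells loaded with oleic acid (400 uM, as added) and compounds at several concentrations; lipid droplets imaged by 488-nm laser-scanning cytometry, 500–530 nm intensity and object ratio to cell channel. Percent activity normalized to 20 uM Triacsin C.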

Setting [1] is: measured here: cell number channel AC50, cells fed with added oleic acid.
The mark [2] stands for this setting: measured here: lipid fluorescence (Fed channel) AC50, cells fed with added oleic acid.

Some of the results follow. Further columns of the screen follow, without active or inactive calls. Most of these compounds were active or inconclusive in the main read-out, so they are no random draw. Words in brackets tell the shape of the fitted curve; partial curves, single points and poor fits give uncertain potencies.

In the case of `Cc1cccc(NC(=O)c2ccc(NC(C)c3ccccc3)c([N+](=O)[O-])c2)n1` (stereo not drawn), the cell number change was -4.31%. Under setting [1], the AC50 was 6.51 µM [falling, single point].
Regarding `COc1ccc(NC(=O)Nc2ccc3c(c2)N(C)C(=O)CS3)cc1OC`, the cell number change was found to be 12.1%. The AC50 under setting [2] is 2.06 µM [rising, partial curve].
Turning to `COC(=O)c1cc(C(=O)OCC(=O)N(C)C2CCS(=O)(=O)C2)cc([N+](=O)[O-])c1` (stereo not drawn), the cell number change stood at 5.08%. For the same molecule, the concentration at half-maximal activity (AC50) under setting [2] is 0.206 µM [falling, full curve, poor fit].
Turning to `O=C(COC(=O)C(Cc1ccccc1)NC(=O)c1ccco1)NC1CC1` (stereo not drawn), the cell number change is -24.8%.
With `COc1ccc(/C(C)=N/NC(=S)NCCc2ccccc2)c(O)c1`, the cell number change was -13.2%.
Turning to `O/N=C\c1cccn1-c1nccs1`, the half-maximal activity concentration (AC50) by setting is: under setting [1], 0.731 µM [rising, partial curve]; under setting [2], 0.58 µM [rising, single point].
As for `Nc1nonc1NC(=O)NN=C1CCCCC1`, the cell number change worked out at 51.5%. In addition, under setting [1], the AC50 was 29.1 µM [rising, single point]. Moreover, under setting [2], the AC50 was 18.4 µM [rising, single point].
As to `COc1cccc(-n2c(=O)c3sccc3n(CC(=O)NC3CCCCC3)c2=O)c1`, the cell number change was determined as 4.62%. Under setting [2], the half-maximal activity concentration (AC50) was 29.1 µM [rising, single point].
Regarding `O=C(CNS(=O)(=O)c1ccc(Br)s1)N1CCN(C(=O)c2ccco2)CC1`, the cell number change was -38.4%. Further, the half-maximal activity concentration (AC50) under setting [1] is 32.6 µM [falling, partial curve, poor fit]. The concentration at half-maximal activity (AC50) under setting [2] is 29.1 µM [rising, single point].
As to `Cc1cccc(C(=O)NC2CCN(C(=S)NCc3ccco3)CC2)c1`, the cell number change is -1.15%. In addition, the half-maximal activity concentration (AC50) under setting [2] is 0.651 µM [falling, partial curve, poor fit].
As for `CCS(=O)(=O)c1ccc2oc(Nc3ccccc3C)nc2c1`, the cell number change stood at 2.36%. In addition, the half-maximal activity concentration (AC50) under setting [2] was 0.0731 µM [rising, full curve, poor fit].
For `CSc1ccc(/C=N/NC(=O)CN2CCN(Cc3ccc(Cl)cc3)CC2)cc1`, the cell number change was -2%. Also, under setting [2], the AC50 is 6.51 µM [falling, single point].
Consider `CCOC(=O)C1=C(COC(=O)c2cccc(Br)c2)NC(=O)NC1C` (stereo not drawn), for which the cell number change is -0.54%. For the same molecule, the concentration at half-maximal activity (AC50) under setting [2] is 1.3 µM [falling, full curve].
Consider `CC(=O)c1ccc(OCC(=O)N(C)CC(=O)Nc2ccc(N3CCOCC3)cc2)cc1`, for which the cell number change is -8.76%. Also, the AC50 under setting [2] is 13 µM [rising, single point].
As to `CCOc1ccc(NC(=S)NNC(=O)c2cc(Br)ccc2Cl)cc1`, the cell number change was -34%. The AC50 under setting [1] is 20.6 µM [falling, single point].
For the molecule `Nc1c(C(=O)Nc2ccc(S(=O)(=O)N3CCCC3)cc2)sc2nc3ccc(OC(F)(F)F)cc3cc12`, the cell number change was -74%. Besides, the AC50 under setting [1] is 29.1 µM [falling, single point]. Besides, under setting [2], the half-maximal activity concentration (AC50) is 11.6 µM [falling, partial curve].
With `O=C(NCCCO)C(=O)c1c(-c2ccccc2)cc2ccccn12`, the cell number change is -10.9%. Further, the half-maximal activity concentration (AC50) under setting [2] is 3.66 µM [rising, single point].
With `CCOC(=O)C1=C(C)N=c2s/c(=C\c3cccc(OCC(=O)O)c3)c(=O)n2C1c1ccccc1` (stereo not drawn), the cell number change was -15.8%.
As for `CCCCS(=O)(=O)NC1=NCN(CCO)CN1`, the cell number change is -58.4%. The concentration at half-maximal activity (AC50) under setting [1] was 29.1 µM [falling, single point]. Also, under setting [2], the AC50 was 29.1 µM [falling, single point].
With `CCOC(=O)Cc1csc(NC(=O)CCCN2C(=O)c3ccccc3C2=O)n1`, the cell number change was determined as 8.28%.
As for `CCOc1ccc(C2C(C(=O)O)c3ccccc3C(=O)N2CCN2CCOCC2)cc1` (stereo not drawn), the AC50 under setting [1] is 2.06 µM [falling, partial curve].
With `Cc1ccc(N/N=C(\Cc2nc3ccccc3[nH]2)c2ccccc2)cc1`, the cell number change was -15.3%. Moreover, under setting [2], the AC50 was 29.1 µM [falling, single point].
For the molecule `Cc1ccc(C(=O)O/N=C(\N)Cc2cccc3ccccc23)cc1`, the cell number change was 124%. The concentration at half-maximal activity (AC50) under setting [1] was 29.1 µM [rising, single point]. In addition, the AC50 under setting [2] was 29.1 µM [falling, single point].
As to `Cc1nc(SCC(=O)N2c3ccccc3NC(=O)CC2C)c2c(C)c(C)sc2n1` (stereo not drawn), under setting [2], the AC50 is 20.6 µM [falling, partial curve].
As to `CCOC(=O)c1c(NC(=O)COC(=O)c2ccc(O)cc2)sc(C(=O)N(C)C)c1C`, the cell number change was 20.6%. For the same molecule, the AC50 under setting [2] was 0.731 µM [falling, single point].
Consider `CN(CC(=O)Nc1cccc(Cl)c1)S(=O)(=O)c1ccc2c(c1)n(C)c(=O)c(=O)n2C`, for which the cell number change was -23.3%. In addition, the half-maximal activity concentration (AC50) under setting [2] was 6.51 µM [falling, single point].
For the molecule `CC(C)CC(C)c1cc(N)nc2nc3ccccc3n12` (stereo not drawn), the cell number change was -51.6%. Also, under setting [1], the concentration at half-maximal activity (AC50) was 29.1 µM [falling, single point]. Under setting [2], the AC50 is 20.6 µM [falling, single point].
Regarding `CC(=O)Nc1ccc(S(=O)(=O)NCCNS(=O)(=O)c2ccc(NC(C)=O)cc2)cc1`, the cell number change worked out at 3.7%.
Consider `Cc1cccc(-n2cnc3c(sc4nc(N5CCOCC5)c5c(c43)CCCC5)c2=O)c1`, for which the cell number change was 9.54%. In addition, the concentration at half-maximal activity (AC50) under setting [2] is 5.8 µM [rising, single point].
`O=C(c1cccc(NS(=O)(=O)c2cccc([N+](=O)[O-])c2)c1)N1CCOCC1`: the cell number change was -32.2%. The AC50 under setting [1] is 0.82 µM [falling, full curve]. The AC50 under setting [2] is 29.1 µM [falling, single point].
For `CCN(CC)CCCn1c2c(c(SCC(=O)Nc3ccc(F)c(F)c3)nc1=O)CCC2`, the cell number change came to 19.9%.
Turning to `CSc1nc(Cl)cc(Nc2ccc(O)cc2)n1`, the cell number change was 24.7%.
In the case of `CC(C)NCC(O)COc1cccc2ccccc12` (stereo not drawn), the cell number change was found to be 10.6%. Under setting [2], the AC50 is 29.1 µM [rising, single point].
As to `COc1ccc(OC)c(NC(=O)NCc2ccc(F)cc2)c1`, the cell number change was -34.5%. For the same molecule, under setting [1], the half-maximal activity concentration (AC50) is 14.6 µM [falling, partial curve]. The half-maximal activity concentration (AC50) under setting [2] was 1.16 µM [rising, full curve, poor fit].
Consider `COC(=O)CC[C@@H](C(=O)O)N1C(=O)c2ccccc2C1=O`, for which the cell number change was -49.2%. In addition, the AC50 under setting [1] is 11.6 µM [falling, partial curve]. Further, under setting [2], the AC50 is 0.0058 µM [falling, full curve, poor fit].
For the molecule `CCOC(=O)c1nnn(-c2nonc2-n2cccc2)c1CCl`, the cell number change worked out at 4.3%.
For `CCCCNC(=O)C(=O)N/N=C/c1ccc(OCc2ccccc2)cc1`, the cell number change is -11.4%. For the same molecule, the half-maximal activity concentration (AC50) under setting [2] is 4.11 µM [falling, full curve, poor fit].
In the case of `COc1ccc(NC(=O)CN(C)C(=O)c2cccc(-n3cccc3)c2)cc1`, the AC50 under setting [1] is 0.461 µM [rising, single point].
On to `CCC(C)c1ccccc1N1CC(C(=O)Nc2ccc(S(=O)(=O)N3CCOCC3)cc2)CC1=O` (stereo not drawn), for which the cell number change is -0.733%. Besides, the concentration at half-maximal activity (AC50) under setting [2] was 18.4 µM [falling, single point].
As to `O=C(Nc1ccc(F)cc1)c1ccc(-n2cncn2)c([N+](=O)[O-])c1`, the cell number change is -0.152%. Under setting [2], the concentration at half-maximal activity (AC50) is 2.06 µM [rising, partial curve].
Regarding `CCC(C)NC(=O)CSc1nnc(-c2ccncc2)n1-c1ccc(OC)cc1` (stereo not drawn), the cell number change is -9.34%. Also, under setting [1], the AC50 was 2.06 µM [rising, partial curve].
Consider `COc1ccc(-n2c(SCC(=O)C(C)(C)C)nc3ccsc3c2=O)cc1`, for which the cell number change is 26.1%. Moreover, the AC50 under setting [2] was 29.1 µM [rising, single point].
In the case of `Cc1cnc(C(=O)OCC(=O)NC(=O)c2ccccc2)cn1`, the cell number change is -69%. Under setting [1], the AC50 was 29.1 µM [falling, single point]. Further, under setting [2], the AC50 is 0.411 µM [rising, full curve].
`O=C(NC(Cc1ccccc1)C(=O)N1CCN(c2ccccc2O)CC1)c1ccccc1` (stereo not drawn): the cell number change came to 24.8%. For the same molecule, under setting [2], the concentration at half-maximal activity (AC50) was 13 µM [rising, single point].
Consider `CC(C)Cn1c(-c2ccc(Br)cc2)c[nH]c1=S`, for which the cell number change was -51.1%. The AC50 under setting [1] was 29.1 µM [falling, single point]. For the same molecule, under setting [2], the AC50 was 29.1 µM [falling, single point].
Take `O=C(CCN1CCN(CCO)CC1)Nc1ccc(OCc2ccccc2)cc1`: the cell number change was 34.1%. Moreover, the AC50 under setting [1] was 29.1 µM [rising, single point]. Also, the AC50 under setting [2] is 6.51 µM [falling, single point].
For the molecule `COc1ccc(CC(=O)OCC(=O)Nc2cccc(Cl)c2)cc1`, the cell number change came to 59%. Under setting [1], the half-maximal activity concentration (AC50) was 4.61 µM [rising, full curve, poor fit]. Under setting [2], the AC50 is 6.51 µM [rising, single point].
`CN1CCN(c2ccc(S(=O)(=O)N3CCCCC3)cc2N)CC1`: the cell number change is -10.5%. Further, the concentration at half-maximal activity (AC50) under setting [2] is 0.058 µM [falling, full curve, poor fit].
With `COC(=O)Nc1ccc2c(c1)N(C(=O)CCN1CCN3CCCC3C1)c1ccccc1CC2` (stereo not drawn), the cell number change is -27.6%. Under setting [1], the AC50 was 0.731 µM [rising, single point].
`Cc1noc(/C=C/c2ccco2)c1S(=O)(=O)N1CCC(C(=O)NCc2ccco2)CC1`: the cell number change was -20.7%. Also, the AC50 under setting [1] is 2.91 µM [falling, single point]. Also, the half-maximal activity concentration (AC50) under setting [2] is 6.51 µM [rising, partial curve].
For the molecule `O=C(Nc1c(S(=O)(=O)c2ccc(Cl)cc2)csc1Br)c1ccccc1Cl`, the cell number change was -3.7%. Besides, under setting [2], the half-maximal activity concentration (AC50) was 3.66 µM [rising, single point].
Turning to `COc1ccc(NC(=O)NN2CCOCC2)cc1OC`, the cell number change was determined as 5.41%.
For the molecule `Cc1nnc(SCC(=O)Nc2nsc(-c3ccc(Cl)cc3)n2)s1`, the cell number change is 38.1%. In addition, under setting [1], the half-maximal activity concentration (AC50) was 20.6 µM [rising, single point]. The AC50 under setting [2] is 2.31 µM [rising, partial curve, poor fit].
As to `O=C(Oc1ccc2c3c(c(=O)oc2c1)CCC3)c1ccccc1[N+](=O)[O-]`, the cell number change is 15.9%. Further, the concentration at half-maximal activity (AC50) under setting [2] was 0.0259 µM [rising, full curve, poor fit].
For the molecule `CCN(CC)c1ccc(NC(=O)c2ccccc2)cc1S(=O)(=O)Nc1ccccc1OC`, the cell number change was -19.9%.
As for `CC(/C=C/c1ccc2c(c1)OCO2)=N/NC(=O)c1ccncc1`, the cell number change worked out at 23.5%. Besides, the AC50 under setting [2] is 3.26 µM [falling, single point].
For the molecule `Cc1nnc2n(c1=O)C(CS(=O)(=O)c1ccccc1)CS2` (stereo not drawn), the cell number change came to 12.9%. Besides, the AC50 under setting [2] is 0.00651 µM [falling, full curve].
Consider `O=C(CCCc1ccccc1)Nc1ccccn1`, for which the cell number change came to 31.2%. Also, the concentration at half-maximal activity (AC50) under setting [1] was 29.1 µM [rising, single point].
